# Results are given in words; binding and its absence hold for the method and conditions named. Binding seen in cells or lysates may run through a third protein. Here binding means that the protein was enriched with, or labelled near, the bait; the list need not be complete.
# Sequences of proteins named here, by UniProt entry; tags and fusion partners are left off.
# UniProt Q96L96: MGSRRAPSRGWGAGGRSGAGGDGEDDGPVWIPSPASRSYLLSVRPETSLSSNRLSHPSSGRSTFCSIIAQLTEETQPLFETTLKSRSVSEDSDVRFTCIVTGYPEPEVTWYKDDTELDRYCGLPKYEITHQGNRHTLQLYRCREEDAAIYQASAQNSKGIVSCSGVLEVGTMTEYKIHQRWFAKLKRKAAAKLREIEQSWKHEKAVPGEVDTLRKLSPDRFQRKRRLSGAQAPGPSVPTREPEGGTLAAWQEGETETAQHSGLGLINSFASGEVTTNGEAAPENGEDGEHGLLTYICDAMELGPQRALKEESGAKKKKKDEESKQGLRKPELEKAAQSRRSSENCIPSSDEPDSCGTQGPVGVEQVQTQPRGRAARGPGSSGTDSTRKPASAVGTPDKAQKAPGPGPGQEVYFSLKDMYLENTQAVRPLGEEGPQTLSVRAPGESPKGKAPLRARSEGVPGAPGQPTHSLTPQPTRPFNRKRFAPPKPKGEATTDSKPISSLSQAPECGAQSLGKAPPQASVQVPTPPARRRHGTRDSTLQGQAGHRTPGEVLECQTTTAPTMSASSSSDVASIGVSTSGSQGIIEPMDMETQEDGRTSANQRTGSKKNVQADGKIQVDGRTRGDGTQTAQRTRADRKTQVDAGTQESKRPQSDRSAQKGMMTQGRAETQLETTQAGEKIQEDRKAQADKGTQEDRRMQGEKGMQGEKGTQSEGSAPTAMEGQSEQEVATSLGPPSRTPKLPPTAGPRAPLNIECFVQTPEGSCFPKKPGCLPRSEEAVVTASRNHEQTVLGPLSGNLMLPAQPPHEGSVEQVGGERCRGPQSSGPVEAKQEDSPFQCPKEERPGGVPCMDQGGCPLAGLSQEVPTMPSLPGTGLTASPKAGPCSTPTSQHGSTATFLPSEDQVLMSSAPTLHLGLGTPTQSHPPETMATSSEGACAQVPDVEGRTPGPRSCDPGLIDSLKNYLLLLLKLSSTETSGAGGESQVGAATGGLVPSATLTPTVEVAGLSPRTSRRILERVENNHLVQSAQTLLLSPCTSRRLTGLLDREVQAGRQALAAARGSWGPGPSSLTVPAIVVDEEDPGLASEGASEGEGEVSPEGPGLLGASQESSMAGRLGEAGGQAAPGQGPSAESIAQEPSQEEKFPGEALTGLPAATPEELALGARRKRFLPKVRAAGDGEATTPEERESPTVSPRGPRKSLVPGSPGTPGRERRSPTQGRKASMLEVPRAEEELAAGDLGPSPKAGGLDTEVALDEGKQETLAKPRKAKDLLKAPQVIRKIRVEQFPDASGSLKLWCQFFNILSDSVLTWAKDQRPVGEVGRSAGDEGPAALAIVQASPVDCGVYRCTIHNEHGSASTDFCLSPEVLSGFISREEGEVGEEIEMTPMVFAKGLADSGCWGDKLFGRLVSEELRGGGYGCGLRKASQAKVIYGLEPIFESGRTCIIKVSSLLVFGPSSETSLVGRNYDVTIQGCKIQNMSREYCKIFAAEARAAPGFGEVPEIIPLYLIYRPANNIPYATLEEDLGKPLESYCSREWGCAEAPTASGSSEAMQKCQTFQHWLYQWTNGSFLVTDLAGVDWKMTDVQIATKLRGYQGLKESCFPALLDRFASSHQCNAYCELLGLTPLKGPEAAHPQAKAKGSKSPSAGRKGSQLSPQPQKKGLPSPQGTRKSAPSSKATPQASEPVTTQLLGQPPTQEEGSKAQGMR
# UniProt O75147: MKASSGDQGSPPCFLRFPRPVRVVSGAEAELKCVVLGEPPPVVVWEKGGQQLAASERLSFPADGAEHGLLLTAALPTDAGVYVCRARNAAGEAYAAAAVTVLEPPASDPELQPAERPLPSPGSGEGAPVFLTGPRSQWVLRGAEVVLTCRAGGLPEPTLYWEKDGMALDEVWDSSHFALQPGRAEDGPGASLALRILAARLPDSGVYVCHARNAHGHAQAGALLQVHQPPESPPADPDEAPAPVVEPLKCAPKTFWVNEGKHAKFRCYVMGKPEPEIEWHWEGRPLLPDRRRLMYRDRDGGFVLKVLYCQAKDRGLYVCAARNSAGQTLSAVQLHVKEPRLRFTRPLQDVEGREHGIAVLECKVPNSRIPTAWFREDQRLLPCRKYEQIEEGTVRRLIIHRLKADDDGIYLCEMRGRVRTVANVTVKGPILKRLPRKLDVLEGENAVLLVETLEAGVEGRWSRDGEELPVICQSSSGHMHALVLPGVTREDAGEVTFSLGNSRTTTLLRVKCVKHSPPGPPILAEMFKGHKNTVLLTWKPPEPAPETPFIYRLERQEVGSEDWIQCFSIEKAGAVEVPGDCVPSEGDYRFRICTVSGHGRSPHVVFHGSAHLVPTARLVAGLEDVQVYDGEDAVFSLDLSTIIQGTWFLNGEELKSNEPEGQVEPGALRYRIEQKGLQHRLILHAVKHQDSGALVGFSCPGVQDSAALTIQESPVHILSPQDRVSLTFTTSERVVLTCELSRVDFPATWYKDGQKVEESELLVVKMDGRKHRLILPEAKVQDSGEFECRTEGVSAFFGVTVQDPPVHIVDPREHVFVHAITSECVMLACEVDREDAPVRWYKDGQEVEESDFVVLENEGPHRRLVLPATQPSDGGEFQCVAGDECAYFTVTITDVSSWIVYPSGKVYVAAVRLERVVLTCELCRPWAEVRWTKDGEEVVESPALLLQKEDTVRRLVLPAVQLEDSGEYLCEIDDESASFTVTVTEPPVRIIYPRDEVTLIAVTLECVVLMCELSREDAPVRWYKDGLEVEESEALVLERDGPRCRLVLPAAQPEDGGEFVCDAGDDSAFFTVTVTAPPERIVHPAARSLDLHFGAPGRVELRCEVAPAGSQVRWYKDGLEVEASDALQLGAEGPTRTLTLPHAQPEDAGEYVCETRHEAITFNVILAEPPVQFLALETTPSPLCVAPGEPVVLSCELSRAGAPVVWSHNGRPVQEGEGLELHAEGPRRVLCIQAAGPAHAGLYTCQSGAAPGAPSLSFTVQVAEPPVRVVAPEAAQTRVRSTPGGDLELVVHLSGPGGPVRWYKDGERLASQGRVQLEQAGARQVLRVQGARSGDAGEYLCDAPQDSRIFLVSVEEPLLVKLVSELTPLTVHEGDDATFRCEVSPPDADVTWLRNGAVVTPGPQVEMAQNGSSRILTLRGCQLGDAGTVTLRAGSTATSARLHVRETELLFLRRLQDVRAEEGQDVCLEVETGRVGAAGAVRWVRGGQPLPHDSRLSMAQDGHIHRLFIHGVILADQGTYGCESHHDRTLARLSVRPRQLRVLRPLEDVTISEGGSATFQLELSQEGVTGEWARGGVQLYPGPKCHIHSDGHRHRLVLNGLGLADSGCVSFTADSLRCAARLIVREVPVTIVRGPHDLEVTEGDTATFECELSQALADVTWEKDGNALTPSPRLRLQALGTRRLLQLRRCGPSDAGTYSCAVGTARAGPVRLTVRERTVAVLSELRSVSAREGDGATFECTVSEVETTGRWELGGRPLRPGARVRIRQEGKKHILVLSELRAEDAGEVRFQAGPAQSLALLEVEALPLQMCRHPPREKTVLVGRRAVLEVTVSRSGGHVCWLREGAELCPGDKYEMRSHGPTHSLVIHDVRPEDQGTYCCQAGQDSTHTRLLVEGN
# UniProt Q9BYV6: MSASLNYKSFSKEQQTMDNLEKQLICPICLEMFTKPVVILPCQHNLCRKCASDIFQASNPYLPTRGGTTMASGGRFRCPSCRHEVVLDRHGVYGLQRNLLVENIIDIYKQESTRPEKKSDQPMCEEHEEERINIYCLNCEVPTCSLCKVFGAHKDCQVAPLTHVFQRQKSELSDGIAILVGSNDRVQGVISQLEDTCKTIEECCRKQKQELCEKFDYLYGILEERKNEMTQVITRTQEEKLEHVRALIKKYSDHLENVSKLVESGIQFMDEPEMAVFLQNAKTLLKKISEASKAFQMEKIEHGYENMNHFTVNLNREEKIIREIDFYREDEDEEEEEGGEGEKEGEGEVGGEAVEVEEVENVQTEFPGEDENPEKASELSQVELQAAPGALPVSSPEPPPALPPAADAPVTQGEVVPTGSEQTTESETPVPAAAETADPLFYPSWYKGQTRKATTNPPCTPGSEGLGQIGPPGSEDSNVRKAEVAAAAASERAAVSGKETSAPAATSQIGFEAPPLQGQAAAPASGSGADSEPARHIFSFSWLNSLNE
# Biological target: ALPK3–SBP3×FLAG (endogenous alpha kinase 3 with a C-terminal streptavidin-binding peptide 3×FLAG tag) (human (endogenous in hPSC-derived cardiomyocytes)) (UniProt Q96L96)
# Assay: affinity purification with mass spectrometry; anti-FLAG M2 immunoprecipitation (Protein G Dynabeads) from lysates of lactate-purified ALPK3–SBP3×FLAG hPSC CMs against controls; co-IP buffer 150 mM NaCl, 50 mM Tris-HCl pH 7.5, 10% glycerol, 0.1% Triton X-100; 4 °C; on-bead digest, LC-MS/MS; n = 5 per group
row,Substance,binding
1,HUWE1 (from UniProt Q7Z6Z7 1-4374),binds
2,obscurin-like protein 1 (OBSL1) (from UniProt O75147 1-1896),binds
3,E3 ligase MuRF2 (TRIM55) (from UniProt Q9BYV6 1-548),binds
4,obscurin (OBSCN) (from UniProt Q5VST9 1-7968),binds
